Reference: patent US8211931B2, “Active compound combinations having insecticidal and acaricidal properties” (Bayer Cropscience AG, priority 2006, dated 2012)

System: Anthocoris nemoralis
Assay: Field test on pear trees, number of the beneficial species
Format: in vivo
Settings: 14 d

| SMILES | Number of Anthocoris nemoralis (400 g/ha/m crown height, UL 400) | Number of Anthocoris nemoralis (75 g/ha/m crown height, 100 OD) |
| --- | --- | --- |
| Cc1ccc(/N=C/N(C)/C=N/c2ccc(C)cc2C)c(C)c1 [Amitraz, reference compound] | 5 |  |
| CCOC(=O)OC1=C(c2cc(C)ccc2C)C(=O)N[C@]12CC[C@@H](OC)CC2 [Ex. I-4′] |  | 12 |
